In article PMC3814934:
These are yes or no findings as the source states them, for the method shown. In cells and extracts the contact can be indirect. A result given as binding can be weak or reduced; the word gives no strength. For part of these data: Tags and fused reporters may be left off the sequences shown.

B1: in vitro-translated full length IRF-4 (protein, UniProt Q15306 1-451)
chain: MNLEGGGRGGEFGMSAVSCGNGKLRQWLIDQIDSGKYPGLVWENEEKSIFRIPWKHAGKQDYNREEDAALFKAWALFKGKFREGIDKPDPPTWKTRLRCALNKSNDFEELVERSQLDISDPYKVYRIVPEGAKKGAKQLTLEDPQMSMSHPYTMTTPYPSLPAQQVHNYMMPPLDRSWRDYVPDQPHPEIPYQCPMTFGPRGHHWQGPACENGCQVTGTFYACAPPESQAPGVPTEPSIRSAEALAFSDCRLHICLYYREILVKELTTSSPEGCRISHGHTYDASNLDQVLFPYPEDNGQRKNIEKLLSHLERGVVLWMAPDGLYAKRLCQSRIYWDGPLALCNDRPNKLERDQTCKLFDTQQFLSELQAFAHHGRSLPRFQVTLCFGEEFPDPQRQRKLITAHVEPLLARQLYYFAQQNSGHFLRGYDLPEHISNPEDYHRSIRHSSIQE
modifications: 35S-radiolabeled
B2: IRF-4 1–135 with FLAG tag, in vitro-translated (domain or fragment, UniProt Q15306 1-135)
chain: MNLEGGGRGGEFGMSAVSCGNGKLRQWLIDQIDSGKYPGLVWENEEKSIFRIPWKHAGKQDYNREEDAALFKAWALFKGKFREGIDKPDPPTWKTRLRCALNKSNDFEELVERSQLDISDPYKVYRIVPEGAKKG
modifications: 35S-radiolabeled

Assays:
[1] = molecular target: GST-LANA C (945–1162aa) (Kaposi's sarcoma-associated herpesvirus (KSHV, human herpesvirus 8)); test: pull-down; as a2, in the presence of DNase I (20 U/ml) treatment; only the target purified
[2] = molecular target: GST-LANA C (945–1162aa) (Kaposi's sarcoma-associated herpesvirus (KSHV, human herpesvirus 8)); test: pull-down; GST-LANA fusion proteins on beads incubated with 35S-labeled in vitro-translated IRF-4 (full length or FLAG-tagged truncations); binding buffer 1x PBS, 0.1% NP-40, 0.5 mM DTT, 10% glycerol, protease inhibitors; overnight at 4°C; autoradiography; only the target purified

| Binder | binding [1] | binding [2] |
| --- | --- | --- |
| B1 | binds | binds |
| B2 |  | binds |
